Measurements reported in PubChem BioAssay AID1671195 (Yale University, 2021)
Test: 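Regulators of LDL receptor activity judged by labelled LDL uptake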 (primary screen). System: human Huh7 hepatoma cells. Knock-down reagent: siRNA pool against human genes, 18 nM. Timing: about 2 to 2.5 days of knockdown, then 8 h LDL uptake. Challenge: DiI-labelled LDL at 30 µg/ml for 8 h, in lipoprotein-deficient serum medium. Detection: 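Fluorescent LDL signal imaged in cells, scaled to the plate median, robust z-score for each replicate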. Reading the numbers: robust z-score: higher = more LDL uptake after knockdown. Active means: 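Active when two or more replicates show a robust z-score above 2 or below -2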.
Shown is a random part of about 22,000 reagents. In the full data, about 1,510 (6.9%) got an active call. 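Active includes knockdowns raising or lowering LDL uptake; positive z-scores mean more uptake, negative mean less.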 Entries without a mark were called inactive. The numbers tell different reagents against one gene apart.

The first 8 records as a preview:
Target gene	reagent	robust z-score, replicate 1	robust z-score, replicate 2	robust z-score, replicate 3
LTBP4	1	1.66	1.35	0.437
RPL7AP53	1	-0.37	-0.962	-0.777
ZNF280C	1	-0.618	-0.971	0.13
SULT1C3	1	2.83	1.15	-0.0767
USP6NL	1	1.07	2.9	1.08
ELK3	1	0.341	1.06	0.256
NDUFC1	1	0.344	-0.209	-0.536
RAD23A	1	-0.796	-1.12	-0.657

The list itself, from the first entry:
Target gene	reagent	robust z-score, replicate 1	robust z-score, replicate 2	robust z-score, replicate 3
LTBP4	1	1.66	1.35	0.437
RPL7AP53	1	-0.37	-0.962	-0.777
ZNF280C	1	-0.618	-0.971	0.13
SULT1C3	1	2.83	1.15	-0.0767
USP6NL	1	1.07	2.9	1.08
ELK3	1	0.341	1.06	0.256
NDUFC1	1	0.344	-0.209	-0.536
RAD23A	1	-0.796	-1.12	-0.657
SPATA31G1	1	0.803	0.918	1.66
PATL2	1	-0.0845	0.43	-0.429
PSMA3	1	-0.936	-0.623	-0.659
DACH2	1	1.71	1.47	2.07
MRTFA	1	-0.0855	0.287	-0.144
LOC388131 (retired record)	1	0.344	1.08	0.692
SUPT6H	1	-0.0566	-0.519	-0.54
RNF114	1	-1.04	-0.796	-0.795
PKD2L1	1	0.208	-0.366	0.388
DPAGT1	1	1.29	1.1	0.991
LOC442387 (retired record)	1	0.154	-0.138	-0.224
LINC00885	1	-0.755	-0.881	-0.698
TRIM13	1	2.24	0.618	1.42
FAM131B	1	-0.69	0.36	-0.333
LOC389271 (retired record)	1	0.512	0.861	0.867
MAPDA	1	-0.376	-1.16	-0.52
TFPT	1	0.264	-0.787	0.325
GKAP1	1	-0.915	0.0363	0.0106
DEFB107A	1	-0.672	-0.881	-0.662
TSHZ2	1	-1.6	-1.71	-1.48
POLR3KP2	1	0.878	0.795	1.75
RGSL1	1	0.902	1.21	1.05
RGSL1	2	-0.0495	0.59	0.296
GRM3	1	0.421	-0.832	0.265
ZNF565	1	2.12 (active)	1.34	2.3
CXXC1P1	1	-0.835	0.388	0.577
RNF215	1	1.07	1.76	0.878
LCA5L	1	-1.66	-1.35	-1.64
WWC1	1	1.65	-0.246	1.15
TJP1	1	0.276	0.567	0.129
SLC18B1	1	1.04	1.01	0.247
HSPA8P11	1	-0.0875	-0.187	0.24
LOC440826 (retired record)	1	0.988	0.626	0.707
LOC440497 (retired record)	1	1.41	1.7	1.11
ASB16-AS1	1	-0.816	-0.356	-0.756
FGF17	1	-0.544	-0.27	-0.732
HOXC8	1	-1.2	-0.932	-1.26
KLK1	1	-0.428	-0.835	-0.618
PRDM13	1	1.41	0.879	1.41
STMN1	1	0.87	1.03	0.316
STMN1	2	-0.384	-0.0147	-0.585
MYOG	1	-1.06	-0.98	-0.519
WARS2	1	1.74	1.9	3.01
KLHL2	1	-0.271	-1.67	-0.947
LINC00906	1	-1.88	-1.17	-1.48
ENDOV	1	0.982	1.56	2.4
HSD17B12	1	1.54	0.779	1.12
OR51V1	1	-0.89	-1.24	-1.24
TNFRSF11A	1	1.9	1.22	0.908
PLPP6	1	0.147	0.443	0.0327
LOC389403 (retired record)	1	-0.529	-0.245	-0.637
APOBEC2	1	-2.15 (active)	-2.42	-2.21
FTSJ1	1	-2.99 (active)	-3.11	-3.17
INCA1	1	-1.16	-0.984	-0.974
NTF3	1	1.35 (active)	3.07	2.52
CRMP1	1	3.9 (active)	3.57	3.98
HAT1	1	0.538	-0.06	0.735
OR8U8	1	-1.5	-1.23	-1.22
UFC1	1	-2.04 (active)	-0.409	-2.48
H3C1	1	0.0669	-0.63	0.295
